# Test results from PubChem BioAssay AID1347076 (National Center for Advancing Translational Sciences (NCATS), 2019).
# The whole screen tested about 400,000 compounds, of which about 13,000 (3.2%) were called active. The shares of active, inactive and inconclusive entries below differ from those in the screen. Calls follow the shape of the dose curve; as a rule, active = well fitted cell-killing curve with a large enough effect; inconclusive = small, poorly fitted or top-dose-only effect, or effect the other way; inactive = flat fitted curve, though single readings scatter. A potency beside an inconclusive call is a rough fit, not a confirmed value.
# Assay: qHTS assay for MDR1-selective chemotherapeutics: Primary screen using the drug-selected MDR subline cells KB-V1; also: nearly all actives have a fitted effect of over 60% in size
# Settings: KB-V1 MDR cells viability, CellTiter-Glo, 72 h; series mostly up to 46.1 µM
# In short: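 In this primary screen, KB-V1 cells overexpressing P-gp are incubated with library compounds (lowest to highest concentration) for 72 h at 37 degrees C before a luminescent ATP viability read.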
# Potency is read from the fitted curve at half-maximal effect.
row,Structure (SMILES),Potency
1,S=C(Nc1ccc2c(c1)OCO2)NC1CCN(Cc2ccccc2)CC1,"inconclusive: 9.2 µM [cytotoxic, partial curve]"
2,COCCCNC(=O)CC(NS(=O)(=O)c1ccc(OC)cc1)c1ccc(OC)cc1 (stereo unspecified),inactive
3,O=C(COC(=O)C1=COCCO1)Nc1cc(C(F)(F)F)ccc1Cl,inactive
4,O=C1CC(NS(=O)(=O)c2cccnc2)CN1c1ccccc1 (stereo unspecified),"inconclusive: 32.6 µM [rising, single point]"
5,COC(=O)c1cc(NC(=O)c2cc(-c3ccc(C(F)(F)F)cc3)oc2C(F)(F)F)ccc1N1CCOCC1,"inconclusive: 32.6 µM [cytotoxic, partial curve, poor fit]"
6,COc1ccc(C(c2nnnn2C2CCCC2)N2CCN(c3ccccc3)CC2)cc1 (stereo unspecified),"inconclusive: 9.2 µM [cytotoxic, partial curve, poor fit]"
7,CCCN(C(=O)c1c(C)oc2ncn(CC(C)C)c(=O)c12)c1ccccc1C,inactive
8,C(=C\c1ccnc2ccccc12)/c1ccc(N(Cc2ccccc2)Cc2ccccc2)cc1,inactive
9,CCN1c2ccccc2-c2nc(SCC(=O)Nc3cc(OC)cc(OC)c3)ncc2S1(=O)=O,inactive
10,Cc1ccc(NS(=O)(=O)c2ccc(C3CCCCC3)cc2)cc1,active: 20.6 µM
11,O=C(c1ccccc1)c1ccc(Oc2ncccn2)cc1,"inconclusive: 29.1 µM [cytotoxic, single point]"
12,COc1nc(NC2OC(CO)C(O)C(O)C2O)c(N)c(=O)[nH]1 (stereo unspecified),inactive
13,CCOC(=O)C(=O)c1c(-c2ccc(C)cc2)nc2ccccn12,inactive
14,CC(=O)N1CCN(c2c(F)c(F)c(C(F)(F)F)c(F)c2F)CC1,"inconclusive: 18.4 µM [cytotoxic, partial curve]"
15,C/C(CC(=O)Nc1ccccc1[N+](=O)[O-])=N\NC(=O)COc1ccccc1C,inactive
16,CC(=O)Nc1cncc(-c2ccccc2CO)n1,inactive
17,CCOC(=O)Cc1nn(C)c(=O)c2ccccc12,"inconclusive: 32.6 µM [cytotoxic, single point]"
18,CCC(C(=O)NCc1ccco1)N(C(=O)CNS(=O)(=O)c1ccc(F)cc1)c1ccccc1F (stereo unspecified),"inconclusive: 29.1 µM [cytotoxic, single point]"
19,Cc1ccc(F)cc1NC(=O)C1CCCN(c2ncccn2)C1 (stereo unspecified),"inconclusive: 29.1 µM [cytotoxic, single point]"
20,Cc1ccc(NC(=O)Nc2nnc(CSCCOc3ccc(Cl)cc3)s2)cc1,"inconclusive: 6.51 µM [cytotoxic, partial curve]"
21,CCCN1C(=O)/C(=C\C=C2/C=CN(CC)c3ccccc32)SC1=S,"inconclusive: 11.6 µM [cytotoxic, partial curve, poor fit]"

# Two of the compounds above, with tabs:
row	Structure (SMILES)	Potency
10	Cc1ccc(NS(=O)(=O)c2ccc(C3CCCCC3)cc2)cc1	active: 20.6 µM
11	O=C(c1ccccc1)c1ccc(Oc2ncccn2)cc1	inconclusive: 29.1 µM [cytotoxic, single point]
